# Cell number after 72 h of treatment

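The test systems are human melanoma cell lines, treated with a pair of drugs for 72 h and then stained and imaged. The read-out is cell count (nuclei) in % of the DMSO control; lower values mean stronger growth inhibition or killing. Every drug was used at one fixed concentration, the higher of two screened. The file gives one value for each pair and line, without errors, so small differences may be noise.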 Only some of the drugs and lines screened are listed, without regard to their results.

Every entry is a combination with dorsomorphin at 2 µM: c1cc(-c2cnn3cc(-c4ccc(OCCN5CCCCC5)cc4)cnc23)ccn1

Second drug | WM3619 | COLO 792 | COLO 800 | WM451Lu | C32 | COLO 829
Cc1cc(SCc2sc(-c3ccc(C(F)(F)F)c(F)c3)nc2C)ccc1OCC(=O)O at 10 µM | 74.5 | 74.1 | 98.2 | 106 | 75.2 | 93.0
NC(=O)Nc1cc(-c2cccc(F)c2)sc1C(=O)N[C@H]1CCCNC1 at 0.1 µM | 18.6 | 69.2 | 77.0 | 82.4 | 64.0 | 80.6
CCc1ccc(CCOc2ccc(CC3SC(=O)NC3=O)cc2)nc1 (centres undefined) at 10 µM | 65.4 | 68.9 | 116 | 69.7 | 60.4 | 66.9
CO[C@@H]1[C@H](N(C)C(=O)c2ccccc2)C[C@H]2O[C@]1(C)n1c3ccccc3c3c4c(c5c6ccccc6n2c5c31)C(=O)NC4 at 0.4 µM | 70.5 | 60.9 | 32.8 | 72.9 | 61.0 | 74.9
C/C(O)=C(\C#N)C(=O)Nc1cc(Br)ccc1Br at 10 µM | 92.9 | 90.2 | 77.0 | 75.4 | 81.8 | 69.9
C[C@@H](Oc1cc(-c2cnn(C3CCNCC3)c2)cnc1N)c1c(Cl)ccc(F)c1Cl at 1 µM | 52.4 | 62.5 | 34.1 | 58.8 | 54.8 | 81.6
C[C@]1(c2nc3c(C(N)=O)cccc3[nH]2)CCCN1 at 7 µM | 57.6 | 80.2 | 71.2 | 59.4 | 53.7 | 77.6
N.N.[Cl][Pt][Cl] at 8 µM | 83.1 | 96.2 | 73.9 | 65.8 | 59.8 | 86.7
NC(=O)c1ccc(N(C(N)=O)c2c(F)cccc2F)nc1-c1ccc(F)cc1F at 2 µM | 89.8 | 88.2 | 139 | 91.0 | 70.7 | 88.8
Cn1nnc2c(C(N)=O)ncn2c1=O at 10 µM | 70.1 | 73.5 | 69.6 | 70.5 | 80.3 | 91.1
Nc1cccc2c1CN(C1CCC(=O)NC1=O)C2=O (centres undefined) at 5 µM | 83.7 | 85.8 | 92.5 | 66.0 | 64.6 | 87.6
CS(=O)(=O)CCNCc1ccc(-c2ccc3ncnc(Nc4ccc(OCc5cccc(F)c5)c(Cl)c4)c3c2)o1 at 4 µM | 37.0 | 41.7 | 48.0 | 81.9 | 47.4 | 55.5
CCCS(=O)(=O)Nc1ccc(F)c(C(=O)c2c[nH]c3ncc(Cl)cc23)c1F at 0.4 µM | 59.2 | 68.3 | 85.2 | 61.2 | 71.7 | 80.3
C[C@]12O[C@H](C[C@]1(O)CO)n1c3ccccc3c3c4c(c5c6ccccc6n2c5c31)CNC4=O at 0.02 µM | 73.4 | 70.4 | 101 | 64.6 | 71.2 | 77.8
Cn1cc(C2=C(c3cn(C4CCN(Cc5ccccn5)CC4)c4ccccc34)C(=O)NC2=O)c2ccccc21 at 4 µM | 72.1 | 75.6 | 86.2 | 71.4 | 57.6 | 98.7
CO[C@H]1C[C@@H]2CC[C@@H](C)[C@@](O)(O2)C(=O)C(=O)N2CCCC[C@H]2C(=O)O[C@H]([C@H](C)C[C@@H]2CC[C@@H](OCCO)[C@H](OC)C2)CC(=O)[C@H](C)/C=C(\C)[C@@H](O)[C@@H](OC)C(=O)[C@H](C)C[C@H](C)/C=C/C=C/C=C/1C at 0.1 µM | 75.2 | 71.7 | 129 | 85.8 | 58.1 | 93.0
CN(c1ncccc1CNc1nc(Nc2ccc3c(c2)CC(=O)N3)ncc1C(F)(F)F)S(C)(=O)=O at 0.4 µM | 67.3 | 69.5 | 87.9 | 56.8 | 63.2 | 73.4
O=C(CCCCCCC(=O)Nc1ccccc1)NO at 0.4 µM | 66.7 | 76.5 | 93.5 | 52.0 | 54.1 | 75.1
Cn1cncc1[C@@](N)(c1ccc(Cl)cc1)c1ccc2c(c1)c(-c1cccc(Cl)c1)cc(=O)n2C at 0.05 µM | 74.7 | 69.4 | 96.7 | 60.5 | 55.0 | 88.4
CC(C)C[C@H](NC(=O)[C@H](Cc1ccccc1)NC(=O)c1cnccn1)B(O)O at 0.005 µM | 4.7 | 39.9 | 48.7 | 29.0 | 15.6 | 14.9

Some entries from above, unchanged:

Second drug,WM3619,COLO 792,COLO 800,WM451Lu,C32,COLO 829
CN(c1ncccc1CNc1nc(Nc2ccc3c(c2)CC(=O)N3)ncc1C(F)(F)F)S(C)(=O)=O at 0.4 µM,67.3,69.5,87.9,56.8,63.2,73.4
Cn1nnc2c(C(N)=O)ncn2c1=O at 10 µM,70.1,73.5,69.6,70.5,80.3,91.1

From a melanoma drug combination screen (doi:10.1371/journal.pone.0140310); values rounded.